Taken from: PubChem BioAssay AID1508597 (Cure First, 2020)

- Screen: 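Knock-downs altering ovarian cancer cell survival with or without PARP inhibitor rucaparib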 (primary screen)
- System: human ovarian carcinoma lines grown from tumours: OCI-P5x (papillary serous) and OCI-C5x (clear cell)
- Reagents: siRNA pool against human genes, 1.25 pmol siRNA per well
- Timing: 72 h or 96 h, depending on the cell culture
- Conditions: rucaparib 20 µM (about IC30) or vehicle, present until read-out
- Rucaparib or vehicle: Vehicle
- Cell line: OCI-C5x (clear cell)
- Measured: 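Luminescent ATP-based viability assay read 72 or 96 h after transfection, depending on culture, given as normalised percent viability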
- Scale: viability, normalised: higher = more viable cells remaining
- Rule for the call: 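Active when normalised viability falls below 80 percent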
- Calls: active = viability under 80%; inactive = viability 80% or more
Shown is a random part of the about 2,100 reagents, in one setting of the screen. 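Calls flag viability under 80% in either arm, not effects specific to rucaparib; the reference for percent is not stated.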 Entries without a mark were called inactive. The record does not give: the 100% reference.

gene	technical replicate	viability, normalised (%)
MECP2 (GeneID 4204)	1	45.2 (active)
MECP2 (GeneID 4204)	2	61.9 (active)
MECP2 (GeneID 4204)	3	46.5 (active)
RNF2 (GeneID 6045)	1	47.5 (active)
RNF2 (GeneID 6045)	2	36.4 (active)
RNF2 (GeneID 6045)	3	56.9 (active)
ITGB1 (GeneID 3688)	1	42.6 (active)
ITGB1 (GeneID 3688)	2	48.1 (active)
ITGB1 (GeneID 3688)	3	67.6 (active)

2 entries from above, set out differently:
{"gene": "MECP2 (GeneID 4204)", "technical replicate": "3", "viability, normalised (%)": "46.5 (active)"}
{"gene": "RNF2 (GeneID 6045)", "technical replicate": "1", "viability, normalised (%)": "47.5 (active)"}

The list goes on.
gene	technical replicate	viability, normalised (%)
IL10 (GeneID 3586)	1	83.5
IL10 (GeneID 3586)	2	70.4 (active)
IL10 (GeneID 3586)	3	75.4 (active)
MBD6 (GeneID 114785)	1	50.8 (active)
MBD6 (GeneID 114785)	2	50.4 (active)
MBD6 (GeneID 114785)	3	50 (active)
EPHA2 (GeneID 1969)	1	37 (active)
EPHA2 (GeneID 1969)	2	50.6 (active)
EPHA2 (GeneID 1969)	3	50.4 (active)
MAPK7 (GeneID 5598)	1	76.4 (active)
MAPK7 (GeneID 5598)	2	64 (active)
MAPK7 (GeneID 5598)	3	78.1 (active)
SMARCD3 (GeneID 6604)	1	36 (active)
SMARCD3 (GeneID 6604)	2	22.5 (active)
SMARCD3 (GeneID 6604)	3	29.9 (active)
